Measured values as given in doi:10.1101/286708.
Where a chain is given by its changes, count along the chain named. No constants are given. Whether binding was seen depends on the method and setting. Binding seen in cells or lysates may run through a third protein. Some binding calls cover weakened binding; strength is not graded here. For some assays here: Sequences can lack the tags named with a protein. Values belong to the substance of their own block, whether it stands above or below them.

The chains behind the UniProt entries cited, without tags or fusion partners. Where a name states a change or a piece, a line headed by the entry shows the natural chain unless it says otherwise. A line that says so, or that is headed by a name, gives the form on record, which may keep a tag or linker.
UniProt Q9Y297: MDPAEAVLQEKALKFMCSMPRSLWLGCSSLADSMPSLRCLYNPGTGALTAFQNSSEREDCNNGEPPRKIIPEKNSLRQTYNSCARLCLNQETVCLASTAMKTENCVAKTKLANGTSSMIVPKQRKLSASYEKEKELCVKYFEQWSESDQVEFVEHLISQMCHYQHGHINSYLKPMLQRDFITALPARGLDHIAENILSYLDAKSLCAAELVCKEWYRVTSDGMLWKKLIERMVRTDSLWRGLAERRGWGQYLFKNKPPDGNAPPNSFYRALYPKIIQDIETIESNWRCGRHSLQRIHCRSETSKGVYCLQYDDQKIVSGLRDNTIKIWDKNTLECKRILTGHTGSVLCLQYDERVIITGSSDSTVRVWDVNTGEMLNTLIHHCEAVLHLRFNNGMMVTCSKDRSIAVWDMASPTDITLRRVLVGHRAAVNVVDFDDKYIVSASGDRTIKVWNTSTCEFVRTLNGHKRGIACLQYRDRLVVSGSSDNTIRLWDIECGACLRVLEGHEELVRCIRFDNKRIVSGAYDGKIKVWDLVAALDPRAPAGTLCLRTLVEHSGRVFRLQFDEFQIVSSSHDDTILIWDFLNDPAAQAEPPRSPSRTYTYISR
β-TrCP1, in vitro transcribed and translated (Q9Y297-2, form named): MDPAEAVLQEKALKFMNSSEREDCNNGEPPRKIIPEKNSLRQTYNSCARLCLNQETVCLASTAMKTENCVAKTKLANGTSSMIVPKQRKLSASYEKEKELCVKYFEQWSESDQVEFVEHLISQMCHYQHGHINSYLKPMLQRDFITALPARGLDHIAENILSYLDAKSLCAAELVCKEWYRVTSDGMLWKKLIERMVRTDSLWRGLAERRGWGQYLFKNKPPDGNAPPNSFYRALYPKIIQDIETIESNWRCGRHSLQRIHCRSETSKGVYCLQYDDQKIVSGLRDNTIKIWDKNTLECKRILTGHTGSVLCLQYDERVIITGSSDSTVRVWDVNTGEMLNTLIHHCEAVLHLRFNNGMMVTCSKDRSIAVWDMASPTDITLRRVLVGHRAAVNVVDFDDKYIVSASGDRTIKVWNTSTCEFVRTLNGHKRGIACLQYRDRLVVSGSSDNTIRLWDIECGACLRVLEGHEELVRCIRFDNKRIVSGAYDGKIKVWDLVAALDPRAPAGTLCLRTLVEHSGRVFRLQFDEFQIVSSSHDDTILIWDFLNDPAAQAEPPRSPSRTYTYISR
myc-MDM2, in vitro transcribed and translated (Q00987-11, form named): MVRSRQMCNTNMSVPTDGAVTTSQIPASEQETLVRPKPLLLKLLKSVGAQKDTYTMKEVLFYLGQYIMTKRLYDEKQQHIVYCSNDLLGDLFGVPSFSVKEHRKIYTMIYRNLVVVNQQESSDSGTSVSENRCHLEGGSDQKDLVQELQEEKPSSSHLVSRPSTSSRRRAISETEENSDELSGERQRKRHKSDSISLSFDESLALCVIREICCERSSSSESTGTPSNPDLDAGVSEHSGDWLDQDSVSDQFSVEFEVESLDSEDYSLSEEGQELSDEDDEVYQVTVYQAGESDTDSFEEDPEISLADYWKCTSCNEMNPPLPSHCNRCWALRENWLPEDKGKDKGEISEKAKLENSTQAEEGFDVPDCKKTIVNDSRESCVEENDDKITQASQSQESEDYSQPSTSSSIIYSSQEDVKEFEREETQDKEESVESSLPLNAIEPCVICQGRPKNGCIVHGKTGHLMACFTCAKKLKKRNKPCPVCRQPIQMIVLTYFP
UniProt P49674: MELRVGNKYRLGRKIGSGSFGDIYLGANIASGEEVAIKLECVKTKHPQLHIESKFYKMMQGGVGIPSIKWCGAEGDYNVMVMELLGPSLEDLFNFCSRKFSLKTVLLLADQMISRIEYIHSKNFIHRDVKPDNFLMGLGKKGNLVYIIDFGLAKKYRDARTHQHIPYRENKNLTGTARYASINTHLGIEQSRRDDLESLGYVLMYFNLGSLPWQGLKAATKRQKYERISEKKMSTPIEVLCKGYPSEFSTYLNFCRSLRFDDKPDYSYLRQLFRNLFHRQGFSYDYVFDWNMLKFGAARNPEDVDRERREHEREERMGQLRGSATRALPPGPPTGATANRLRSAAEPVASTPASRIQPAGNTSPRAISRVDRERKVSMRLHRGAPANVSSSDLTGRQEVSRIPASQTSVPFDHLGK

Tests used:
[1] = target: T1, myc-PER2(683-872), in vitro transcribed and translated (human) (UniProt O15055); test: co-IP
T1 sequence: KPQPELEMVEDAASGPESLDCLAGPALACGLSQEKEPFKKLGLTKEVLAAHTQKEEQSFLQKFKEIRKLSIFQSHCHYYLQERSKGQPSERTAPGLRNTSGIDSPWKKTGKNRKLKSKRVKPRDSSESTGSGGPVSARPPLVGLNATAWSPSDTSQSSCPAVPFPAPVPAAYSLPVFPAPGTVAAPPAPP

[2] = target: T2, GST-PER2(356-574) (human) (UniProt O15055); test: pull-down
T2 sequence: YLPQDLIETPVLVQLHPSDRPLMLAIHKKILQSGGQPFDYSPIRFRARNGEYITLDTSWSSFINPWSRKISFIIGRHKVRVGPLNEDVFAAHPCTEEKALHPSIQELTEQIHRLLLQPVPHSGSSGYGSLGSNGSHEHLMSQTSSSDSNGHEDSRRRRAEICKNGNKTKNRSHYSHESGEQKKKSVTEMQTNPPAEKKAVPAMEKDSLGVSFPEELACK

[3] = target: T3, GST-PER2(683-872) (human) (UniProt O15055); test: pull-down
T3 sequence: T1 sequence

[4] = target: T4, FLAG-PER2 expressed in HCT116 p53+/+ cells (human) (UniProt O15055); test: co-IP
T4 sequence: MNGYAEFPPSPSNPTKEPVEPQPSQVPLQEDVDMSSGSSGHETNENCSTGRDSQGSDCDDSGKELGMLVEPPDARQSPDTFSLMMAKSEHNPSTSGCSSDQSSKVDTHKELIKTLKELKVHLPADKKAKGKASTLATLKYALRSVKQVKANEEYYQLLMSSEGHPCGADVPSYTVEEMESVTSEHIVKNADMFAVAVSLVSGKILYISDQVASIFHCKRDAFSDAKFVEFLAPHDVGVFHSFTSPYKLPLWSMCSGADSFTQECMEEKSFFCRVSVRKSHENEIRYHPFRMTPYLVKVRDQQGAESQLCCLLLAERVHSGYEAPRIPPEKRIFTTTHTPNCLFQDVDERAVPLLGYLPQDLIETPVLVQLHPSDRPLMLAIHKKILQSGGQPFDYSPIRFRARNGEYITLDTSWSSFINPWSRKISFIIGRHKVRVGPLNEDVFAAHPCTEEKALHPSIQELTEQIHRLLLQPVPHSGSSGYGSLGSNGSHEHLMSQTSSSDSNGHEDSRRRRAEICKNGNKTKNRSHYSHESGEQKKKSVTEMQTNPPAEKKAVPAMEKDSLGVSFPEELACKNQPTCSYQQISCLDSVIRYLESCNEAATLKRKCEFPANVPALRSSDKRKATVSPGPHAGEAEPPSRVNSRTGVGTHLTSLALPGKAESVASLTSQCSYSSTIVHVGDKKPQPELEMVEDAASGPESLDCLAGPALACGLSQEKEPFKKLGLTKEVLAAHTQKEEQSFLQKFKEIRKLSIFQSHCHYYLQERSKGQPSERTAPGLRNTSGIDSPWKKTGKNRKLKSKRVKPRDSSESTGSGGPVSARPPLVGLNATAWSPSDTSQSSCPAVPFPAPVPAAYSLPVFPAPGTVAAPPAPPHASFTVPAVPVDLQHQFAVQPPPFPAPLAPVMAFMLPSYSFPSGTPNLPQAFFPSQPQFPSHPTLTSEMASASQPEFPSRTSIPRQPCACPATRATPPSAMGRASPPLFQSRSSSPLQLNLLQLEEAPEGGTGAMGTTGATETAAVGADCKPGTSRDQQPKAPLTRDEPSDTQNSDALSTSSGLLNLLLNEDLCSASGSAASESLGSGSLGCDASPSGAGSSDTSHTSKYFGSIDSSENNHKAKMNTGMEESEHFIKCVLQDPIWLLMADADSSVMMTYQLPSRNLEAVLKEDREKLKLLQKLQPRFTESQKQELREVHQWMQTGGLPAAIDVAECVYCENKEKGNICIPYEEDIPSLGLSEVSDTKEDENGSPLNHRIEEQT

[5] = target: T5, endogenous PER2 of HCT116 cells (human (endogenous in HCT116)) (UniProt O15055); test: co-IP
T5 sequence: T4 sequence

[6] = target: T6, FLAG-PER2, in vitro transcribed and translated (human) (UniProt O15055); test: co-IP
T6 sequence: T4 sequence

[7] = target: T7, PER2(S662A), in vitro transcribed and translated (human) (UniProt O15055); test: co-IP
T7 sequence: T4 sequence with S662A

[8] = target: T8, myc-PER2, in vitro transcribed and translated (human) (UniProt O15055); test: co-IP
T8 sequence: T4 sequence

Substance: endogenous β-TrCP1 of HCT116 p53+/+ cells (from UniProt Q9Y297 1-605)
- binding [4]: binds

Substance: myc-MDM2, in vitro transcribed and translated (from UniProt Q00987-11 1-497)
- binding [6]: binds

Substance: β-TrCP1, in vitro transcribed and translated (from UniProt Q9Y297-2 1-569)
- binding [7]: binds
- binding [8]: binds

Second part, the substance after the results:

- binding [1]: binds
Substance: FLAG-CK1ε, in vitro transcribed and translated (from UniProt P49674 1-416) (enzyme)

- binding [2]: binds
- binding [3]: binds
Substance: FLAG-MDM2, in vitro transcribed and translated (from UniProt Q00987-11 1-497)

- binding [5]: binds
Substance: myc-MDM2 expressed in HCT116 cells (from UniProt Q00987-11 1-497)
